Substitutions are numbered along the chain they refer to. Results are given in words; binding and its absence hold for the method and conditions named. Some results given as binding are weak or reduced against the parent protein; the word gives no strength. For part of these data: Where a sequence is shown, tags or fusion partners need not be part of it.
T1: wild-type IL-7Rα (his-tagged, secreted from HEK293T cells) (human) (UniProt P16871)
T1 sequence (looked up): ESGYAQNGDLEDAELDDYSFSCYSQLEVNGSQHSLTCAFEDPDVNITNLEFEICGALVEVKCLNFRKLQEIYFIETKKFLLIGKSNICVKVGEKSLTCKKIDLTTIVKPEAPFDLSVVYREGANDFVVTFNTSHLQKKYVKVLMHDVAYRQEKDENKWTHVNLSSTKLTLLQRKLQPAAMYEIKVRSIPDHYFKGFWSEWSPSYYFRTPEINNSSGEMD

B1: C1GM-2 (hIgG2ΔA) (antibody)
heavy: EVQLVESGGGLVKPGGSLRLSCAASGFTFDDSVMHWVRQAPGKGLEWVSLVGWDGFFTYYADSVKGRFTISRDNAKNSLYLQMNSLRAEDTAVYYCARQGDYMGNNWGQGTLVTVSSASTKGPSVFPLAPCSRSTSESTAALGCLVKDYFPEPVTVSWNSGALTSGVHTFPAVLQSSGLYSLSSVVTVPSSNFGTQTYTCNVDHKPSNTKVDKTVAPPVAGPSVFLFPPKPKDTLMISRTPEVTCVVVDVSHEDPEVQFNWYVDGVEVHNAKTKPREEQFNSTFRVVSVLTVVHQDWLNGKEYKCKVSNKGLPSSIEKTISKTKGQPREPQVYTLPPSREEMTKNQVSLTCLVKGFYPSDIAVEWESNGQPENNYKTTPPMLDSDGSFFLYSKLTVDKSRWQQGNVFSCSVMHEALHNHYTQKSLSLSPGK
light: NFMLTQPHSVSESPGKTVTISCTRSSGSIDSSYVQWYQQRPGSSPTTVIYEDDQRPSGVPDRFSGSIDSSSNSASLTISGLKTEDEADYYCQSYDFHHLVFGGGTKLTVLQPKAAPSVTLFPPSSEELQANKATLVCLISDFYPGAVTVAWKADSSPVKAGVETTTPSKQSNNKYAASSYLSLTPEQWKSHRSYSCQVTHEGSTVEKTVAPTECS
B2: HAL403a (full-length antibody) (antibody, V domains shown)
VH: QVNLRESGGGLVKPGGSLRLSCAASGFTFDDSVMHWVRQAPGKGLEWLSLVGWDGFFTYYADSVKGRFTISRDNTKNLLYLQMNSLRAEDTAVYYCARQGDYMGNNWGQGTLVTVSS
VL: NFMLTQPHSVSGSPGKTVTISCTRSSGSIDSSYVQWYQQRPGNSPTTVIYEDDQRPSGVPDRFSGSIDSSSNSASLTISGLVTEDEADYYCQSYDFHHLVFGGGTKLTVLT
B3: HAL403b (full-length antibody) (antibody, V domains shown)
VH: B2 VH
VL: B2 VL with Q92M, S93Q, T111C

Tests used:
[1] = target: Human IL-7R-hFc antigen (R&D systems) (human) (UniProt P16871); assay: SPR (Biacore 2000/3000)
[2] = target: T1, wild-type IL-7Rα (his-tagged, secreted from HEK293T cells) (human); assay: SPR (ProteOn XPR36), antibody amine-coupled, IL-7Rα at 100 nM

Binder	binding [1]	binding [2]
B1	binds	–
B2	–	binds
B3	–	binds

Source: patent publication US20180327503A1
